Experimental data: PubChem BioAssay AID743121 (NCATS, 2013)
This is a random part of about 26,000 reagents tested. 167 of them (0.63%) count as active. 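Calls are per gene from RSA p-values that are not deposited; an individual active-marked siRNA can sensitise only weakly.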 A number with no mark means an inactive call. Reagents against one gene are numbered here. Further read-outs or replicates are left out here.

Test: 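Knock-downs that sensitise breast cancer cells to camptothecin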 (primary screen)
Cell system: MDA-MB-231 cells, a human breast cancer line
Reagent: single siRNA against human genes, 20 nM siRNA (0.8 pmol per well)
Timing: 120 h (drug added 48 h after transfection, read 72 h later)
Conditions: camptothecin 20 nM (about EC30) for 72 h; vehicle 0.1% DMSO in parallel plates
Read-out: 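CellTiter-Glo ATP signal, scaled to control siRNA as percent viability; sensitisation given as log2 of untreated divided by camptothecin-treated viability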
Scale: log2 vehicle/camptothecin viability: higher = stronger sensitisation to camptothecin
Hit rule: 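Active genes have an RSA gene-level p-value below 0.001, computed from the ratios of their separate siRNAs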

no.	gene	siRNA no.	log2 vehicle/camptothecin viability
1	BABAM2	1	-0.274
2	BABAM2	2	-0.474
3	BABAM2	3	-0.0862
4	BABAM2	4	0.0198
5	XIAP	1	0.00682
6	XIAP	2	0.132
7	XIAP	3	-0.0167
8	XIAP	4	-0.22
9	PTCHD1	1	-0.0356
10	PTCHD1	2	-0.313
11	PTCHD1	3	-0.57
12	PTCHD1	4	-0.254
13	ZIC1	1	0.00117
14	ZIC1	2	-0.405
15	ZIC1	3	0.00224
16	DUSP13B	1	-0.18
17	DUSP13B	2	-0.533
18	DUSP13B	3	-0.195
19	DUSP13B	4	-0.423
20	SCN2A	1	-0.226
21	SCN2A	2	-0.11
22	SCN2A	3	-0.176
23	PPP2R2A	1	-0.233
24	PPP2R2A	2	-0.391
25	PPP2R2A	3	0.847
26	PPP2R2A	4	0.392
27	KLK11	1	-0.437
28	KLK11	2	-0.369
29	KLK11	3	0.241
30	KLK11	4	-0.0634

4 of these entries, reformatted.
{"gene":"BABAM2","siRNA no.":3,"log2 vehicle/camptothecin viability":-0.0862}
{"gene":"BABAM2","siRNA no.":4,"log2 vehicle/camptothecin viability":0.0198}
{"gene":"XIAP","siRNA no.":1,"log2 vehicle/camptothecin viability":0.00682}
{"gene":"XIAP","siRNA no.":2,"log2 vehicle/camptothecin viability":0.132}
